Source: patent US4814432A, “Inhibitor of ribonucleotide reductase” (priority 1987, dated 1989)
At least one structure is not confirmed: it was looked up by name or label, or the drawing left a doubt. Where a SMILES comes first, the peptide text is derived from it. [ ]: non-standard residue; d: D form. Cha = N[C@@H](CC1CCCCC1)C(=O)O

Sequences of proteins named here, by UniProt entry; tags and fusion partners are left off. A change or cut given only in a name is not applied to a line headed by its entry.
UniProt P89462: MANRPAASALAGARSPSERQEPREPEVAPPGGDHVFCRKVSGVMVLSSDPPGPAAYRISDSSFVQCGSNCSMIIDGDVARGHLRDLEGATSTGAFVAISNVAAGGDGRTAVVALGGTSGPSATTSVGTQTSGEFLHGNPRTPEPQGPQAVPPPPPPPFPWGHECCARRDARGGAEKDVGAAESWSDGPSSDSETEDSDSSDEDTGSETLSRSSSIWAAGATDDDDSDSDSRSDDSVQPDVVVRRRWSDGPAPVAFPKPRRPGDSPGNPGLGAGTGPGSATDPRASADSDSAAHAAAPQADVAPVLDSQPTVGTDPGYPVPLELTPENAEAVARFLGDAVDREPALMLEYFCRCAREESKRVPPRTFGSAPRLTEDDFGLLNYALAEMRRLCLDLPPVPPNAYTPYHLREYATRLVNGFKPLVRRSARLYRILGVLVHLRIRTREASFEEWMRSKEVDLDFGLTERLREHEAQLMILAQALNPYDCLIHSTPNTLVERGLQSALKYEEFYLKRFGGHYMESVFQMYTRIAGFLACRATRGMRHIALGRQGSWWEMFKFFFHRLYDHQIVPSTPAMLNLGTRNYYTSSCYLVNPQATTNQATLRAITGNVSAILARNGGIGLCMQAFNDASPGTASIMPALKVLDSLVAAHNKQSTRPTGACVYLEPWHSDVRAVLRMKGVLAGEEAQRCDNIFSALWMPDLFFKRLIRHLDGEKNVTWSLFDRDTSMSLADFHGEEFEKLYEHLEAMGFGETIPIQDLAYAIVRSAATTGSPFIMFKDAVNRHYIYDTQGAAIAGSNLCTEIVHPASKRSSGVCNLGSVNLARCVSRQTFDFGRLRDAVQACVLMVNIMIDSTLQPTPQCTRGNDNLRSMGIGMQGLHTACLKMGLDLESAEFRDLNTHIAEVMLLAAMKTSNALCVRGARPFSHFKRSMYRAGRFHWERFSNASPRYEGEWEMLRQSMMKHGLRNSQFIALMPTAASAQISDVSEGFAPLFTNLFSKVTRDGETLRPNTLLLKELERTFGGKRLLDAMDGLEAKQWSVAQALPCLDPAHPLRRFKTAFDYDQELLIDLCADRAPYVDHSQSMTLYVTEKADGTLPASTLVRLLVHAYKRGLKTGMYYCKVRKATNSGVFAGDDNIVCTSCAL

Target: Herpes Simplex Virus Ribonucleotide Reductase (HSV RR) (Human herpesvirus 2, UniProt P89462)
Format: biochemical
Conditions: read-out: IC50 (μM concentration of peptide producing 50% inhibition of enzyme activity); 30 minutes at 37° C., dithiothreitol and MgCl2; enzyme not preincubated with inhibitor
Description: HSV RR was purified from Baby Hamster Kidney cells that were cultured with HSV2 Strain 186. After infection, cells were harvested and lysed. Crude HSV RR was prepared as described by Huszar et al., J. Virol. 37: 580-588(1981) then subjected to further purification by hydroxyapatite column chromotography.
HSV RR activity was determined as the ability of the enzyme to catalyze the reduction of tritiated cytidine-diphosphate to deoxyribo-cytidine-diphosphate in 30 minutes at 37° C. in the presence of dithiothreitol and MgCl2. Activity of oligopeptide inhibitors was determined by adding them to the reaction mix at the beginning of the incubation. Enzyme was not preincubated with inhibitor.
Oligopeptides were synthesized by either the solid phase method of Merrified, op. cit., or by FMOC chemistry (John Morrow Stewart and Janis Dillaha Young, "Solid Phase Peptide Synthesis," 2nd ed, 1984, Pierce Chemical Co., Rockford, IL.) and purified to >98% homogeneity by reverse phase HPLC and recovered by lyophilization as trifluoroacetic acid salts. These were analyzed for amino acid composition and in some cases sequenced. […] The concentrations of these stock solutions were then determined by measuring A291 nm at basic pH (ε=2.55) for tyrosine-containing peptides and by quantitative amino acid composition for those peptides without tyrosine.

With `CC(C)[C@H](NC(=O)[C@@H](NC(=O)[C@@H](N)Cc1ccc(O)cc1)C(C)C)C(=O)N[C@@H](CC(N)=O)C(=O)N[C@@H](CC(=O)O)C(=O)N[C@@H](CC1CCCCC1)C(=O)O` [Y V V N D U] (H-YVVND[Cha]-OH; N-terminus and C-terminus assumed) as the molecule, how does the IC50 read?
Its IC50 is 55 µM.
